According to PubChem BioAssay AID1347423 (Functional Genomics Laboratory (NCATS/FGL), 2020):
About 210 (0.4%) of roughly 52,000 sequences were called active.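 Rule for the calls: active = gene whose silencing raises cell survival under the drug, median off-target-corrected z-score across its silencing RNAs 2 or more; inactive = the rest.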 This is one part of the list.

Assay: Resistance to Poly (ADP-Ribose) Polymerase inhibitor: Gene Identification via Genome-wide siRNA Screen
Settings: mouse BRCA2 R2336H ES cells, olaparib, CellTiter-Glo viability; hits give high values
How it was run: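 Genome-wide siRNA screen (3 siRNAs/gene, 20 nM) in mouse ES cells carrying hypomorphic BRCA2 R2336H; olaparib 500 nM added 48 h post-transfection, CellTiter-Glo viability 72 h later. Normalized to plate-median negative control; MAD z-scores, gene median, seed-adjusted.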

| Sequence | z-score |
| --- | --- |
| CCUUAGAGAAAAUUAUUGCTT against Hgf | inactive: 0.1 |
| CGAGGAGAUAUCCAUCAAUTT against Nbr1 | inactive: 1.9 |
| GGCUGAACAGCACCUCAUGTT against Rnf30 | inactive: -1.3 |
| GGGAAGAGCCCUAAUAUUATT against Aldh1a2 | inactive: -0.0979 |
| GGAGAAAACUCUAAAUAACTT against Klra2 | inactive: 0.536 |
| GCGGCAUCUAAAGCUCCACTT against Cdh1 | inactive: -1.31 |
| GCAUCCUACGCAUUAAAUCTT against Olfr146 | inactive: -0.12 |
| GGAAGUAGCAACAAGCUACTT against Brd2 | inactive: 0.0726 |
| GGUGGAAGCAAUUUUAAAUTT against Trpc7 | inactive: 1.54 |
| GGUUCACCAUCAAACCCUUTT against 1300012G16Rik | inactive: -0.368 |
| GGAAGUGUCAGGAUAUAUUTT against 4930428O21Rik | inactive: -1.16 |
| GGAGUUUGUAUCAAACUUATT against Zcchc8 | inactive: 0.358 |
| GCAUGAAUCCAGCUCGAUCTT against Aqp4 | inactive: 1.79 |
| GGAUGGACAAAAUACUUAATT against B230354K17Rik | inactive: 0.638 |
| GGUCCCUCUACCCAAAGUUTT against 5730427N09Rik | inactive: -1.17 |
| GGACAGGCUCUACCAGUAUTT against Syt15 | inactive: -0.755 |
| GCCUGGUUUCUCCCUCAAATT against AW209059 | inactive: 0.0462 |
| CCCUAUUAAUCUCAUUGUGTT against P2rx4 | inactive: -0.185 |
| CGCGACUUCCACAAACCUGTT against LOC574530 | inactive: 1.47 |
| GCUGUCAGAGUGGUGAUAUTT against Zdhhc7 | inactive: -0.134 |
| UUGUGGGCUUAUGGAUAUUTT against 9430025C20Rik | inactive: 0.899 |
| GGCUAUUAGGUUUGAAAUCTT against Grsf1 | inactive: 1.02 |
| GCUUAACAAUUUCUCCCGCTT against C230086A09Rik | inactive: 1.11 |
| GCUGAAUUUAGAGAGCACATT against BC030183 | inactive: 0.812 |
| GGGUGUAAUAUCAAAAAAGTT against Atp7a | inactive: -0.0244 |
| GGCCAAGAAAAAAGAAAGATT against Slc22a2 | inactive: -1.73 |

| Sequence | z-score |
| --- | --- |
| GGUAUGUUUUCCUUAAGUGTT against Cdc42se1 | inactive: -0.0253 |
| GGUGUUUGGCAAUCUCAAUTT against Oplah | inactive: 0.666 |
| GGGAGCUUUGGAAAUUUUATT against Zbtb3 | inactive: 0.556 |
| GCUCUUCUCUGUACGACAUTT against Bcas3 | inactive: 1.51 |
| GGAACUAUCCAGUAGGUAGTT against Mill2 | inactive: 1.42 |
| GCCAAGAUGGUUAAAUACCTT against 6430502M16Rik | inactive: -0.129 |
| GCUGGACAUCGACUUUGGATT against Prnd | inactive: 0.801 |
| GCUGAAGGAUCCCAUUAGATT against Cbx2 | inactive: 0.121 |
| CCAUCACUGUCGCCUAUUGTT against Leng4 | inactive: -2.03 |
| GGUAGAAUGAUGUUCAAACTT against 2610028L19Rik | inactive: -1.8 |
| GGAAUUCAAGAAAAGGAUCTT against Plvap | inactive: -0.304 |
| GGAGCUGUUUUCUGUGAAGTT against Mrps2 | inactive: -2.2 |
| CCGGACUUUAUAUGACAACTT against Cd80 | inactive: -0.0946 |
| GCUAGUUGCAUUCUGUGCUTT against Rpl7l1 | inactive: 0.603 |
| GGAAGUUUCAGAAAACAUGTT against Nasp | inactive: 1.28 |
| CCUGGAAAUAUCAAAUUUCTT against Olfr850 | inactive: 0.028 |
| GCGAAAAUAUUUUCCGGGCTT against Itga2 | inactive: 0.573 |
| GGAGAGAAGAAAAAGAAGGTT against Rrbp1 | inactive: 0.803 |
| GCCAAACGAACAACAAAACTT against Chrm3 | inactive: 0.589 |
| UUAUAGAAACGACAAGACUTT against 1110001A23Rik | inactive: 2.02 |
| GGUUGCUACAUGGUUAAUUTT against 6530401C20Rik | inactive: -0.286 |
| GGAGAAAGGUUUUGUUAUGTT against Gtf2h2 | inactive: 1.41 |
| AUAUAACAGUGCCCAGCCUTT against Olfr885 | inactive: 0.61 |
| GGUCUUUCAUCUGACCAGCTT against Slc10a1 | inactive: -1.58 |
| GGAGAUGUUUACAUGUAUUTT against Oact1 | inactive: 0.637 |
| GGGAAUAGCAAAUAAAGCATT against Lztr1 | inactive: -0.544 |

| Sequence | z-score |
| --- | --- |
| GGCUAUCCAAAUUUGAGUCTT against Fert2 | inactive: 0.259 |
| GGUACAUUAACCCUAAAGATT against 4930550C14Rik | inactive: 0.206 |
| GCGUGCAGUGUCGUGAAAGTT against D430018E03Rik | inactive: -0.395 |
| GGAAUCGACAUUGAAUGUGTT against 0610039K22Rik | inactive: -0.267 |
| GCAGUACACUUCCAUAUGGTT against Prlr | inactive: 1.16 |
| GGAGGUGUUAGAUUUUGACTT against Asrgl1 | inactive: 0.861 |
| GCUCACCAGAAUUUGUGGATT against 1700008I05Rik | inactive: 0.154 |
| GGCAAAAAACUGAGAAGAATT against Zfp148 | inactive: -1.15 |
| GGGUCCUCCCUUUUAAGAGTT against 1700123L14Rik | inactive: 0.393 |
| GGUCGUCCCUCUUUAUGGGTT against Rnf5 | inactive: -0.158 |
| CCCGAUCUAUUGCACAAAUTT against Nxt2 | inactive: -0.555 |
| GGAAAUGGAUUUCUUAUGGTT against Cutc | inactive: -1.12 |
| GGAAACCACAUAGAAUAAUTT against Gm604 | inactive: -0.318 |
| GGAUUCUCACCAAAUACUUTT against Oprd1 | inactive: -0.77 |
| GGAUGGUUUUCAUUUGCUUTT against 4732429D16Rik | inactive: 0.124 |
| GGAGAAACAAAAAAGGUGUTT against Srd5a2l | inactive: -0.00262 |
| CCUAGGUGUCACCAUGAACTT against Ssx9 | inactive: 0.765 |
| GGGAAUCUUGUUAUAAGGGTT against V1re9 | inactive: 0.576 |
| GGGUUCAUAUGUUUUGGAUTT against C130050O18Rik | inactive: -0.172 |
| CCGUUAUCUCUUGAAACAUTT against Kitl | inactive: -0.982 |
| GGCAUGUCUAAUGAACUCATT against Acly | inactive: -0.898 |
| CCCUACUAUUGACGAAAACTT against Hoxc12 | inactive: -0.0238 |
| CCUACUGAAACAAUCACACTT against E230031K19 | inactive: 0.272 |
| CCACCUGAUGAGUUUACCGTT against 4930558O21Rik | inactive: 1.05 |
| GGAAUGAGCAUGUUAAAUGTT against Maoa | inactive: -0.182 |
| GGACCUCAAAAGCUAUUUUTT against Slco1a6 | inactive: 0.232 |

Reformatted: results already given
GCGUGCAGUGUCGUGAAAGTT against D430018E03Rik
  z-score: inactive: -0.395
GGAAUCGACAUUGAAUGUGTT against 0610039K22Rik
  z-score: inactive: -0.267
GCAGUACACUUCCAUAUGGTT against Prlr
  z-score: inactive: 1.16
GGAGGUGUUAGAUUUUGACTT against Asrgl1
  z-score: inactive: 0.861

(listing goes on)

| Sequence | z-score |
| --- | --- |
| GCGAUAAGCAGAAUGGCAGTT against 8030462N17Rik | inactive: 0.187 |
| GGAAGUGCAAGUGACAAAGTT against Adat1 | inactive: 1.65 |
| GGCAUACCGAAAGUUAGCCTT against Dnaja2 | inactive: 0.259 |
| GGUCUUGUUCUCAUCAACATT against Ndrg2 | inactive: 1.91 |
| GGCAGGUGACUCCAAAUGUTT against Hdc | inactive: -0.0551 |
| GCGACCUUUAGUACACGUCTT against Cklfsf1 | inactive: 0.672 |
| GCCACAUCGUAGACAAGUATT against Zfp41 | inactive: -0.832 |
| GGGUUUGUGGGAUACAAUCTT against Smarce1 | inactive: -1.77 |
| GCUUUAUAAAGUGGGUAGATT against Bub1 | inactive: 0.0964 |
| CGCAGAAAGAGCAUCAGAUTT against AU019532 | inactive: -0.875 |
| GGACACCAUCAAUUGAUUATT against 0610012K18Rik | inactive: 0.171 |
| GGUACUCACCGGAUACCAATT against Olfr512 | inactive: -0.24 |
| GCAGCAUCAGCAUUUAUAATT against Nmur2 | inactive: 1.22 |
| GGCCCUGAGAAGAAAACUATT against Syngr3 | inactive: 0.476 |
| GGUCAUCAAUCUCACCACUTT against B930076A02 | inactive: -0.768 |
| GGAAAUGCCAUAGUCCUAUTT against Mrgprb5 | inactive: -0.87 |
| GGAAGCUCGACGGAAGUUCTT against BC033915 | inactive: -1.09 |
| GGCACGACUACAUAUUUAATT against Wdfy3 | inactive: 1.18 |
| CCUUUCUUCCUAGUUCUUCTT against Olfr38 | inactive: -0.287 |
| GGUUAUCACAGAAGACUUATT against Clic6 | inactive: -0.723 |
| GGAUUUUAUGAACAUUUGCTT against 2610037M15Rik | inactive: 0.625 |
| GGUGGUCAUUUAUUCAUGUTT against Daf2 | inactive: 0.675 |
| GCACAUUGCUCACAAGCAUTT against MGC107415 | inactive: 0.584 |
| UAUGACUCCACUCUUCUCUTT against Olfr1158 | inactive: -0.74 |
| CGCAGACAAGCAAGAAGUATT against Olfr735 | inactive: -1.32 |
| GGAUGCAUAUUUUAGAAGATT against Mkl2 | inactive: 0.228 |
